In patent US7074819B2, “Benzopyran or thiobenzopyran derivatives” (Chugai Seiyaku Kabushiki Kaisha, priority 1998, dated 2006):
For at least one compound, name, drawing or mass did not settle the structure.

Test system: ovariectomized mice
Assay: Anti-estrogenic activity (subcutaneous administration): inhibition of estradiol-stimulated uterine weight increase
Assay type: in vivo, mice (ICR)
Settings: s.c., 3 days, 30 μg/mouse; ovariectomized mice given 17β-estradiol
Experimental: Anti-estrogenic activity of the test compound by subcutaneous administration was determined according to the method described hereinafter. In this experiment, the compounds of Examples 1, 2, 3, 4, 5, 22, 127 and 128 were used as the test compound and the known anti-estrogenic compound ZM189154 was used as the control compound as in Experiment 1.
In this experiment, the test compound or the control compound was dissolved in peanut oil (Sigma) and injected subcutaneously for 3 days, once a day. After 24 hours from the last injection, the test animal was sacrificed and uterus was removed and weighed.

CN(CCCCC[C@H]1c2ccc(O)cc2OC[C@@]1(C)c1ccc(O)cc1)CCCSCCCC(F)(F)C(F)(F)F (racemic) [Example 4, (3RS,4RS)-7-hydroxy-3-(4-hydroxyphenyl)-4-{5-[N-methyl-N-3-(4,4,5,5,5-pentafluoropentylthio)propylamino]pentyl}-3-methylchroman]
inhibition of the increase of uterine weight by estradiol (in words): substantially inhibit
